Reference: paper PMC11132878

Chains of the proteins cited; added tags and fusions are not shown.
UniProt Q9SZI2: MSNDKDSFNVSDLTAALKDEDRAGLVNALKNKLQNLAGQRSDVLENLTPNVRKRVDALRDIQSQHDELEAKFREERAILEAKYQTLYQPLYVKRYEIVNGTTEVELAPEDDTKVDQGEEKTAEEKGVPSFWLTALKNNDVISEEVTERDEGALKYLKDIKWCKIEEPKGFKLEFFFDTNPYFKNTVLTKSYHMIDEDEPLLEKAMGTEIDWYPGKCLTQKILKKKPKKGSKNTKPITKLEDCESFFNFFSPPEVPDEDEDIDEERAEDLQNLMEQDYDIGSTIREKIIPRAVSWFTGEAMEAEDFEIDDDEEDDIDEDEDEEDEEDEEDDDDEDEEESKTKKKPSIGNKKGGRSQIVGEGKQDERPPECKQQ

T1: MBP–ARP (Arabidopsis APE-redox protein tagged with maltose-binding protein) (Arabidopsis thaliana) (UniProt P45951)
T1 sequence: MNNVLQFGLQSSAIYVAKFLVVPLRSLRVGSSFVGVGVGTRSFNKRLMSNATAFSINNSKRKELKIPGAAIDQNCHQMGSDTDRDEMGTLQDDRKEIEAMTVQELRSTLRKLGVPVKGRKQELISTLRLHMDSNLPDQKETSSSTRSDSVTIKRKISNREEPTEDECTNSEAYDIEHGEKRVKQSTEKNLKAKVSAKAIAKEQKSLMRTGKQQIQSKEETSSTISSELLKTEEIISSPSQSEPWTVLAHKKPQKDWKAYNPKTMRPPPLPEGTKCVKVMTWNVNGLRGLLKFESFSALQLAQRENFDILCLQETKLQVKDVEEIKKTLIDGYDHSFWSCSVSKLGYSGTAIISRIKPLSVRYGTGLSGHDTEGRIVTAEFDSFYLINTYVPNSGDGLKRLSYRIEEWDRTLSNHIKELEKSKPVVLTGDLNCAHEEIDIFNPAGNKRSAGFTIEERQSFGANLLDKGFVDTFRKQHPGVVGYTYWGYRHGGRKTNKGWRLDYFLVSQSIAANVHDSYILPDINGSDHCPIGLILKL


Molecular target: T1, MBP–ARP (Arabidopsis APE-redox protein tagged with maltose-binding protein) (Arabidopsis thaliana)
Assay: affinity purification with mass spectrometry; MBP–ARP as bait, proteins from Arabidopsis seedlings; MBP as negative control; two biological replicates; only the target purified

Row | Molecule | binding
1 | NAP1;1 (endogenous, Arabidopsis seedlings) (from UniProt Q9SZI2 1-372) | binds
2 | CHR24 (endogenous, Arabidopsis seedlings) (enzyme, UniProt Q8W103 1-1090) MAENTASHRRKPRSLNDRHYSILQDLSAPPRQPPSSSHGEDEETKKSMIKLAGRRRLCKALPKEDEADGYDDPDLVDFYSPVKGETSLDSAGIGNKFTSWDESKEANTELAGEPNFSIITDFCSPSPQLKQKEEMQGDGGRNEIMGILDDLTSKLGTMSIQKKKDSQSNDFDACGVKSQVDKFDFEDAKSSFSLLSDLSKSSPDVVTTYNAGVNSIKDKQGKSGFAIREEQTSKEFSREWEERISNVGKQNSYSGRHFDDNSEDNRQGYNLDRGKSQCKEVDQSMKTTRHIEVSEKIRTVGRSNAAKLRDLDEDDDDDDCLILSGKKAAEMKINKPARSYNAKRHGYDERSLEDEGSITLTGLNLSYTLPGKIATMLYPHQREGLNWLWSLHTQGKGGILGDDMGLGKTMQICSFLAGLFHSKLIKRALVVAPKTLLPHWMKELATVGLSQMTREYYGTSTKAREYDLHHILQGKGILLTTYDIVRNNTKALQGDDHYTDEDDEDGNKWDYMILDEGHLIKNPNTQRAKSLLEIPSSHRIIISGTPIQNNLKELWALFNFSCPGLLGDKNWFKQNYEHYILRGTDKNATDREQRIGSTVAKNLREHIQPFFLRRLKSEVFGDDGATSKLSKKDEIVVWLRLTACQRQLYEAFLNSEIVLSAFDGSPLAALTILKKICDHPLLLTKRAAEDVLEGMDSTLTQEEAGVAERLAMHIADNVDTDDFQTKNDSISCKLSFIMSLLENLIPEGHRVLIFSQTRKMLNLIQDSLTSNGYSFLRIDGTTKAPDRLKTVEEFQEGHVAPIFLLTSQVGGLGLTLTKADRVIVVDPAWNPSTDNQSVDRAYRIGQTKDVIVYRLMTSATVEEKIYRKQVYKGGLFKTATEHKEQIRYFSQQDLRELFSLPKGGFDVSPTQQQLYEEHYNQIKLDEKLESHVKFLETLGIAGVSHHSLLFSKTAPIQAIQKDEEEQIRRETALLLGRASASISQDTVINGADYAFKPKDVNLDKRINISPVDDKELSESVIKARLNRLTMLLQNKGTVSRLPDGGAKIQKQIAELTRELKDMKAAERINMPQVIDLEEDISRKMQKGLNL | binds

No constants are given. Whether binding was seen depends on the method and setting. Binding seen in cells or lysates may run through a third protein. These calls come from enrichment with a bait or labelling near it, and not all partners need be listed. Where a sequence is shown, tags or fusion partners need not be part of it.
